The values below come from PubChem BioAssay AID2685 (National Center for Advancing Translational Sciences (NCATS), 2010).

A short description of the assay: qHTS Assay for Lipid Storage Modulators in Drosophila S3 Cells.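 For cell number change: cells counted by Cell Tracker Red CMTPX staining in the red channel.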 The note with it: BODIPY lipid droplet fluorescence, 18-24 h; for cell number change: measured here: cell count max response, cells fed with added oleic acid. The gist of the method:
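Drosophila S3 cells loaded with oleic acid (400 uM, as added) and compounds at several concentrations; lipid droplets imaged by 488-nm laser-scanning cytometry, 500–530 nm intensity and object ratio to cell channel. Percent activity normalized to 20 uM Triacsin C.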
Background: In qHTS, concentration-response curves come from the screen itself.

Setting [1] is: measured here: lipid fluorescence (Fed channel) AC50, cells fed with added oleic acid.
The mark [2] stands for this setting: measured here: cell number channel AC50, cells fed with added oleic acid.

Some of the results follow. Shown are side measurements of this screen, not its main read-out; they come without a call. Most of these compounds were active or inconclusive in the main read-out, so they are no random draw. Potencies come from curve fits of mixed quality, noted in brackets.

Regarding `CCCn1nc(NS(=O)(=O)c2ccccc2)c2cc3ccccc3nc21`, the cell number change is 0.914%. Moreover, the AC50 under setting [1] was 0.164 µM [rising, full curve, poor fit].

In the case of `CN(C)CCCn1cnc2c1c(=O)[nH]c(=O)n2Cc1ccccc1`, the cell number change came out at 5.31%.

For `CC(C)Cn1c(N)c(C(=O)CSc2cc(Cl)ccc2Cl)c(=O)n(C)c1=O`, the cell number change was determined as 19.4%. The half-maximal activity concentration (AC50) under setting [2] is 1.84 µM [rising, partial curve, poor fit]. In addition, the AC50 under setting [1] is 20.6 µM [rising, partial curve, poor fit].

For the compound `Cc1ccc(N/C=C/C(=O)C(C)(C)C)c(O)c1`, the cell number change was -62.6%. In addition, the AC50 under setting [2] is 16.4 µM [falling, partial curve]. For the same compound, under setting [1], the AC50 is 20.6 µM [falling, partial curve].

For the compound `COc1ccccc1NC(=O)C(C)OC(=O)Cn1cnc2c1c(=O)n(C)c(=O)n2C` (stereo unspecified), the cell number change was -25%. The AC50 under setting [1] was 29.1 µM [falling, single point].

Take `CC(C)CN(C(=O)c1nn(C)c(=O)c2ccccc12)c1nc2ccccc2s1`: the cell number change amounted to 6.45%.

Take `CCN(C(=O)COC(=O)/C=C/c1cnc2ccccc2n1)C1CCS(=O)(=O)C1` (stereo unspecified): the AC50 under setting [1] is 0.231 µM [falling, full curve, poor fit].

`O=C(CN(c1cccc(C(F)(F)F)c1)S(=O)(=O)c1ccc(Cl)c([N+](=O)[O-])c1)NCc1ccccc1Cl`: the cell number change is -7.58%. Also, the AC50 under setting [1] was 29.1 µM [falling, single point].

`CC(=O)c1cccc(NC(=O)N2CCCC2C(=O)NCc2ccc(F)cc2)c1` (stereo unspecified): the cell number change was -4.2%. Moreover, the AC50 under setting [1] is 5.8 µM [rising, full curve].

Consider `O=C(N/N=C/c1coc2ccccc2c1=O)c1ccncc1`, for which the cell number change is -16.8%. The half-maximal activity concentration (AC50) under setting [1] is 29.1 µM [falling, single point].

Take `CCCOc1ccc(C(F)(F)F)cc1NS(=O)(=O)c1ccc(Cl)nc1`: the cell number change was determined as 80.3%.

As for `COc1cc(/C=N/OCC(=O)NC2CCS(=O)(=O)C2)ccc1OC(F)F` (stereo unspecified), the AC50 under setting [1] was 3.66 µM [falling, partial curve].

`Cn1c(/C(C#N)=C/c2ccc(-c3ccc(S(N)(=O)=O)cc3)o2)nc2ccccc21`: the cell number change is -49.1%. Further, under setting [2], the AC50 was 5.8 µM [rising, partial curve]. Under setting [1], the AC50 was 29.1 µM [falling, single point].

Consider `COc1cc(/C=N/NC(=O)c2cc(-c3ccccc3OC(C)C)nc3ccccc23)ccc1O`, for which the cell number change is 12.1%. Under setting [1], the AC50 was 1.03 µM [falling, full curve, poor fit].

Consider `CCN(C(=O)COC(=O)c1cn(-c2ccccc2)nc1-c1ccccc1)C1CCS(=O)(=O)C1` (stereo unspecified), for which the AC50 under setting [1] was 18.4 µM [rising, single point].

Consider `CC(/C=N/NC(=O)c1cc(C(C)C)[nH]n1)=C\c1ccccc1`, for which the cell number change is -43.2%. The AC50 under setting [2] is 18.4 µM [falling, partial curve, poor fit].

As to `CCOc1ccc2nc(SCC(=O)N(C)C3CCS(=O)(=O)C3)[nH]c2c1` (stereo unspecified), the cell number change is -28.5%. The AC50 under setting [1] was 23.1 µM [falling, partial curve, poor fit].

`COc1ccc(NC(=O)CCN2C(=O)[C@@H]3[C@H](C2=O)[C@H]2C=C[C@@H]3C2)cc1`: the cell number change worked out at 21.9%. For the same compound, the AC50 under setting [2] is 0.731 µM [rising, full curve, poor fit]. In addition, the AC50 under setting [1] is 0.82 µM [rising, partial curve, poor fit].

For the compound `COc1ccc(-c2nnc3n2CCCCC3)cc1`, the cell number change is 5.22%. Under setting [1], the concentration at half-maximal activity (AC50) is 29.1 µM [rising, single point].

`CCOC(=O)c1ccccc1NC(=O)CSc1nc2c(c(=O)n(C)c(=O)n2C)n1C`: under setting [2], the AC50 was 0.731 µM [rising, single point].

As for `O=C(O)c1cccc(N/N=C/c2cccnc2)c1`, the cell number change was -30.5%. In addition, the AC50 under setting [2] is 1.03 µM [falling, full curve, poor fit]. Moreover, the AC50 under setting [1] was 3.66 µM [falling, full curve, poor fit].

In the case of `Cc1cc(C)c(C)c(OCc2nc(-c3cccnc3)no2)c1`, the cell number change is -19.5%.

Turning to `COc1ccc(-n2c(C)cc(C(=O)CN3CCC(C)CC3)c2C)cc1`, the cell number change was -85.2%.

Turning to `O=C(CCNS(=O)(=O)c1cccs1)N1CCc2ccccc2C1`, the cell number change was found to be 13.9%. Besides, under setting [1], the AC50 was 1.3 µM [rising, full curve, poor fit].

In the case of `Cc1ccc(S(=O)(=O)NCC(=O)NCc2cc(=O)n(C)c(=O)n2C)cc1C`, the cell number change worked out at 8.11%. For the same compound, under setting [1], the AC50 is 18.4 µM [rising, single point].

For the compound `CCOc1ccc(NC(=O)CN(C)C(=O)c2cn(-c3ccccc3)nc2-c2cccs2)cc1OCC`, the cell number change was -32.3%. The AC50 under setting [2] was 0.00517 µM [falling, full curve, poor fit].

Consider `CCCC1=NN2C(=N)/C(=C\c3cc(C)n(-c4cc(C)cc(C)c4)c3C)C(=O)N=C2S1`, for which the cell number change stood at 25.1%. Moreover, under setting [1], the AC50 is 0.13 µM [rising, full curve, poor fit].

Consider `N/C(Cc1ccc([N+](=O)[O-])cc1)=N\OC(=O)c1ccccc1Br`, for which the cell number change is -0.2%. Besides, the AC50 under setting [1] was 20.6 µM [rising, partial curve, poor fit].

`C=CCc1c(C)nc2c(-c3ccccc3)cnn2c1N1CCOCC1`: the cell number change amounted to 17.9%. Under setting [1], the AC50 is 3.26 µM [rising, full curve, poor fit].

As for `CCOC(=O)c1cnc2ccc(OCC)cc2c1N1CCN(C)CC1`, the cell number change was -37.5%. For the same compound, the AC50 under setting [2] was 0.164 µM [falling, full curve, poor fit]. For the same compound, the AC50 under setting [1] is 0.13 µM [falling, full curve, poor fit].

As to `CC(=O)N(C)c1ccc(NC(=O)Nc2cccc3ccccc23)cc1`, the cell number change was -8.38%. For the same compound, the AC50 under setting [1] was 0.092 µM [rising, full curve, poor fit].

Regarding `O=c1cc(-c2ccccc2)[nH]c2[nH]n(-c3ccccc3)c(=O)c12`, the cell number change worked out at 8.53%. Moreover, the AC50 under setting [1] is 0.731 µM [falling, full curve].

As to `COC(=O)c1cn(C(=O)OC)c2ccccc12`, under setting [1], the AC50 was 3.66 µM [falling, partial curve, poor fit].

`CC(CC(=O)Nc1cc([N+](=O)[O-])ccc1Cl)c1ccccc1` (stereo unspecified): the AC50 under setting [2] is 2.31 µM [rising, partial curve].

In the case of `CCc1ccc(Oc2coc3cc(O)ccc3c2=O)cc1`, the cell number change was 20.6%.

Regarding `COc1cc(Cl)ccc1OCc1cc(C(=O)N2CCCCC2c2cccnc2)no1` (stereo unspecified), the cell number change was 8.56%. The concentration at half-maximal activity (AC50) under setting [1] was 3.66 µM [falling, single point].

As to `CC(=O)Nc1nc2n(n1)C(c1ccccc1)C=C(c1ccccc1)N2` (stereo unspecified), the cell number change is -34.3%. Further, under setting [2], the AC50 is 0.231 µM [falling, full curve, poor fit].

In the case of `COc1cccc(C(=O)/C=C/Nc2ccc(S(=O)(=O)Nc3ncccn3)cc2)c1`, the cell number change was 15.7%. Further, the AC50 under setting [1] is 0.0517 µM [falling, full curve, poor fit].

With `O=C(COc1ccccc1)NCc1nnc(SCC(=O)Nc2nccs2)n1-c1ccccc1`, the cell number change was -8.86%. Moreover, under setting [1], the half-maximal activity concentration (AC50) is 0.82 µM [rising, single point].

In the case of `CCOC(=O)N1CCN(C(=O)c2ccc3c(c2)NC(=O)/C(=C\c2ccc(OC)c(OC)c2)S3)CC1`, the cell number change was -22.1%. Besides, the AC50 under setting [1] is 0.184 µM [rising, full curve, poor fit].

Turning to `O=Cc1ccc(Cl)c(Cl)c1`, the cell number change came to 20.2%. In addition, the half-maximal activity concentration (AC50) under setting [1] is 4.11 µM [falling, single point].

For the compound `COC(=O)c1ccc(NC(=O)C2CCCN2S(=O)(=O)c2ccc(OC)cc2)cc1` (stereo unspecified), the cell number change is -10.4%. Under setting [1], the AC50 is 32.6 µM [falling, single point].

As to `CC1=C(C(=O)OCCC#N)C(c2cc3c(cc2Br)OCO3)NC(=O)N1` (stereo unspecified), the cell number change was determined as 10.5%.

Consider `Cc1cccc2cc(CN(CCN3CCOCC3)C(=O)NCc3ccccc3)c(=O)[nH]c12`, for which the cell number change was 22.6%. Moreover, under setting [1], the AC50 is 0.259 µM [rising, full curve, poor fit].

For the compound `O=C(COC(=O)c1cccs1)NCc1ccccc1`, the cell number change came to 1.44%.

As for `CCc1ccc(S(=O)(=O)/N=C2\C=C(Nc3ccc(C(=O)O)cc3)C(=O)c3ccccc32)cc1`, the cell number change was -44.8%. Moreover, the AC50 under setting [2] is 13 µM [falling, partial curve].

`COc1ccccc1N(CC(O)Cn1nc(C)cc1C)S(=O)(=O)c1ccccc1` (stereo unspecified): the cell number change was 1.99%.

Take `CCc1nc2c(C#N)c(-c3ccc(Cl)cc3)ccn2n1`: the half-maximal activity concentration (AC50) under setting [2] is 1.03 µM [rising, partial curve] and the AC50 under setting [1] is 0.651 µM [rising, full curve, poor fit].

Consider `CC(C)CN1CCC(=O)N(CCC#N)CC1`, for which the cell number change was 22%. The concentration at half-maximal activity (AC50) under setting [1] was 29.1 µM [rising, single point].

As to `Fc1ccccc1NC(=S)Nc1ccc(CN2CCOCC2)cc1`, the cell number change is -1.41%. Also, the AC50 under setting [1] was 0.731 µM [falling, single point].

Take `O=C(NCCN=C1NS(=O)(=O)c2ccccc21)c1ccc2nccnc2c1`: the cell number change came out at 1.7%. The AC50 under setting [2] was 4.11 µM [falling, single point]. Also, the AC50 under setting [1] was 4.11 µM [falling, single point].

For the compound `CN1C(=O)C2(N=c3ccccc3=N2)c2ccccc21`, the cell number change was -4.98%. The AC50 under setting [2] was 0.92 µM [rising, full curve, poor fit].

As for `NS(=O)(=O)c1ccc(N2CCN(CCOc3ccc(Cl)cc3)CC2)nc1`, the cell number change was -0.42%. The AC50 under setting [1] was 6.51 µM [rising, single point].

`CCCc1cc(=O)oc2cc(OC(C)C(=O)NCc3ccccn3)c(Cl)cc12` (stereo unspecified): the cell number change is -25.4%. Also, the AC50 under setting [2] was 7.31 µM [falling, partial curve, poor fit]. Under setting [1], the AC50 is 1.3 µM [falling, full curve].

Turning to `CN(Cc1ccccc1Cl)C(=O)C1CCC(=O)N(CCc2cccc(F)c2)C1` (stereo unspecified), the cell number change turned out to be 21.5%. Also, the AC50 under setting [1] was 29.1 µM [falling, single point].

As for `CCc1ccc(N2C(=O)CN(Cc3cc(OC)c(OC)c(OC)c3)C2=S)cc1`, the cell number change was -18.9%. Moreover, the AC50 under setting [2] was 2.31 µM [rising, partial curve]. The AC50 under setting [1] was 6.51 µM [rising, single point].

On to `Cc1ccc2c(c1)C(O)(c1c(C)[nH]c3ccccc13)C(=O)N2` (stereo unspecified), for which the cell number change was -61.6%. Moreover, the AC50 under setting [2] is 29.1 µM [falling, single point]. For the same compound, under setting [1], the AC50 was 29.1 µM [falling, single point].

For the compound `CCN(CC)S(=O)(=O)c1cccc(C(=O)N2CCCCC2)c1`, the cell number change came to 16.9%. Further, the AC50 under setting [1] is 3.66 µM [falling, single point].

As a reminder, the AC50 is the concentration at which the activity in the assay is half-maximal. A high value points to weaker potency.
